Measured values as given in paper PMC11184611, “Development of Nontoxic Peptides for Lipopolysaccharide Neutralization and Sepsis Treatment” (ACS Pharmacology & Translational Science, 2024).
These are yes or no findings as the source states them, for the method shown. Some entries that bind do so weakly or less than the wild type.

Target: K(AL)3K(AL)2K(AL)3K
Assay: circular dichroism (222/208 ratio); 50 μM peptide in double-distilled water with 50 μM purified E. coli LPS, 25 °C, pH 7; ratio ~0.8 taken as monomer, ~1 and higher as oligomer; both purified

- binding: binds
Binder: KALALALKALALKALALALK (C-terminal amide) [K(AL)3K(AL)2K(AL)3K]
